The list shows a part of the results. The data scatter; read single values as rough.
What was measured:
[1] = compound: ClCC(=O)N[C@@H]1CCCc2ccccc12; assay: log2 mean competition ratio of IA-DTB cysteine labelling (DMSO/compound) (log2 ratio); higher = stronger cysteine engagement by compound; conditions: treatment time: 4 h, cell line lysate: HEK293T
Description: (§1)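 IA-DTB competitive cysteine chemoproteomics in HEK293T RIPA lysate. Lysates were treated with compound 29 or 30 at 50 or 200 µM for 4 h, then IA-DTB (500 µM, 1 h), trypsin-digested, NeutrAvidin-enriched and analysed by diaPASEF. Competition ratio = intensity DMSO / intensity compound (n=4 treated, n=64 DMSO); binding: mean log2 CR ≥ 1 and p ≤ 0.05 plus QC filters. Target is the cysteine site.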

Chains of the proteins cited; added tags and fusions are not shown. Lines headed by an entry give the natural chain unless they say otherwise; changes in a name come on top. Residues count along the entry.
UniProt Q6XZF7: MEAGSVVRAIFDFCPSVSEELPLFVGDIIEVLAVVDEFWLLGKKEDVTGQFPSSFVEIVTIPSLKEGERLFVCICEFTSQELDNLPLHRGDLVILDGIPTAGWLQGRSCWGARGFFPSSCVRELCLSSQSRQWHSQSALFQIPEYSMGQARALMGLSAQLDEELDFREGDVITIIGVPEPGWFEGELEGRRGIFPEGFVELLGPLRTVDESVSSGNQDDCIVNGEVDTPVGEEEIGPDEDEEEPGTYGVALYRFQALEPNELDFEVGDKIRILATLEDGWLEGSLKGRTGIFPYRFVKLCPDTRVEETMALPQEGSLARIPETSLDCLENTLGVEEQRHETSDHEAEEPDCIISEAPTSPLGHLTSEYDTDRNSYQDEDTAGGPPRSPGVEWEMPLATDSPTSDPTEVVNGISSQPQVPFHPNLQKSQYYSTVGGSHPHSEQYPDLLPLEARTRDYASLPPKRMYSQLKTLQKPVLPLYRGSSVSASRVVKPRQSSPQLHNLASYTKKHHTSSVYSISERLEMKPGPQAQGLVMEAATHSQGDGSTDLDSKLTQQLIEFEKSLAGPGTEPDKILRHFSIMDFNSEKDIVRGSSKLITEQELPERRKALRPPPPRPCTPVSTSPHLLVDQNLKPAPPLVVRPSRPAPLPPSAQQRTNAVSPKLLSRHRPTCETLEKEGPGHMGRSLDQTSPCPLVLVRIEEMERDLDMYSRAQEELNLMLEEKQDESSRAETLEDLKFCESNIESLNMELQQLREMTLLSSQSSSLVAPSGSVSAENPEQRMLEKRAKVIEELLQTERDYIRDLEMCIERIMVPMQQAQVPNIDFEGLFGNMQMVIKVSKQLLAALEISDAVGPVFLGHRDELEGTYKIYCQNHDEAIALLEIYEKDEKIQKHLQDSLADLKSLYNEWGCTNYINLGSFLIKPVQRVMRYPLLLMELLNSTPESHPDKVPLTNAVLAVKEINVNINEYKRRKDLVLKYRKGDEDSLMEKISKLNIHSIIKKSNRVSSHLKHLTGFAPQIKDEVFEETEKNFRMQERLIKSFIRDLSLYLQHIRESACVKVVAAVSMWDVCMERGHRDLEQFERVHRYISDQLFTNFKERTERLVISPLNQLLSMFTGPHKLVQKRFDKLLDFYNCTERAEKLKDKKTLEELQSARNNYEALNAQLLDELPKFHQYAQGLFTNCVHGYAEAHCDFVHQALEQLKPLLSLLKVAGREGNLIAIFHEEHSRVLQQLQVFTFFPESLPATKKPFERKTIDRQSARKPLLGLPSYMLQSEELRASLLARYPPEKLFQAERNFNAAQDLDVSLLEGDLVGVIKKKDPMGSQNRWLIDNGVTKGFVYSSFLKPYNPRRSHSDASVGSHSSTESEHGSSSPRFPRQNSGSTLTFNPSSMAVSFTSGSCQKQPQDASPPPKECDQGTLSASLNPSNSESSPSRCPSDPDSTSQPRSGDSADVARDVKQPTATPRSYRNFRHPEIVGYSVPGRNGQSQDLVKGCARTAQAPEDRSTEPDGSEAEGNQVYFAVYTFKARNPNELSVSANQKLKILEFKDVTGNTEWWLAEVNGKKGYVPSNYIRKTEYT
UniProt P50570: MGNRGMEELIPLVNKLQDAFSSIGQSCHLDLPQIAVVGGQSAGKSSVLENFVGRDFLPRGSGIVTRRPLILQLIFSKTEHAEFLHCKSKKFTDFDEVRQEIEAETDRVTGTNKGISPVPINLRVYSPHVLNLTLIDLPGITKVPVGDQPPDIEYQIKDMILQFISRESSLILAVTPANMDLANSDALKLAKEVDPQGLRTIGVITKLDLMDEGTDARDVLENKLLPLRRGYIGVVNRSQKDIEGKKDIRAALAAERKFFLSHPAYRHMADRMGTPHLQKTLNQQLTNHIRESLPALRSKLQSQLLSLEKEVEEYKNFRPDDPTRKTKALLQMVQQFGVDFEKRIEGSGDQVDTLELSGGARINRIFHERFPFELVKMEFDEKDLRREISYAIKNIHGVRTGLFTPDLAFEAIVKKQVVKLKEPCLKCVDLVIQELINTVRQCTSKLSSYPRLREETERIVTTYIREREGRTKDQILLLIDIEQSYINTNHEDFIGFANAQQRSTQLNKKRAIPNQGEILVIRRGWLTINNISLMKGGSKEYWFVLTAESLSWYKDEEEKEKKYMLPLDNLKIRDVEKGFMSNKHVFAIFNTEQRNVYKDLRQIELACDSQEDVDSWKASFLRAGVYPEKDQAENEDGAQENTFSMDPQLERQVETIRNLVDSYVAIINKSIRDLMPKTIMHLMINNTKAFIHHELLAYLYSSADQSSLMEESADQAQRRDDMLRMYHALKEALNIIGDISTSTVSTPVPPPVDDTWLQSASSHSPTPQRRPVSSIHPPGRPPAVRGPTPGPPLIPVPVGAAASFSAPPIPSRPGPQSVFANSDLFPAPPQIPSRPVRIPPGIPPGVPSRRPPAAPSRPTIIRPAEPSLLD
UniProt Q9H2U1: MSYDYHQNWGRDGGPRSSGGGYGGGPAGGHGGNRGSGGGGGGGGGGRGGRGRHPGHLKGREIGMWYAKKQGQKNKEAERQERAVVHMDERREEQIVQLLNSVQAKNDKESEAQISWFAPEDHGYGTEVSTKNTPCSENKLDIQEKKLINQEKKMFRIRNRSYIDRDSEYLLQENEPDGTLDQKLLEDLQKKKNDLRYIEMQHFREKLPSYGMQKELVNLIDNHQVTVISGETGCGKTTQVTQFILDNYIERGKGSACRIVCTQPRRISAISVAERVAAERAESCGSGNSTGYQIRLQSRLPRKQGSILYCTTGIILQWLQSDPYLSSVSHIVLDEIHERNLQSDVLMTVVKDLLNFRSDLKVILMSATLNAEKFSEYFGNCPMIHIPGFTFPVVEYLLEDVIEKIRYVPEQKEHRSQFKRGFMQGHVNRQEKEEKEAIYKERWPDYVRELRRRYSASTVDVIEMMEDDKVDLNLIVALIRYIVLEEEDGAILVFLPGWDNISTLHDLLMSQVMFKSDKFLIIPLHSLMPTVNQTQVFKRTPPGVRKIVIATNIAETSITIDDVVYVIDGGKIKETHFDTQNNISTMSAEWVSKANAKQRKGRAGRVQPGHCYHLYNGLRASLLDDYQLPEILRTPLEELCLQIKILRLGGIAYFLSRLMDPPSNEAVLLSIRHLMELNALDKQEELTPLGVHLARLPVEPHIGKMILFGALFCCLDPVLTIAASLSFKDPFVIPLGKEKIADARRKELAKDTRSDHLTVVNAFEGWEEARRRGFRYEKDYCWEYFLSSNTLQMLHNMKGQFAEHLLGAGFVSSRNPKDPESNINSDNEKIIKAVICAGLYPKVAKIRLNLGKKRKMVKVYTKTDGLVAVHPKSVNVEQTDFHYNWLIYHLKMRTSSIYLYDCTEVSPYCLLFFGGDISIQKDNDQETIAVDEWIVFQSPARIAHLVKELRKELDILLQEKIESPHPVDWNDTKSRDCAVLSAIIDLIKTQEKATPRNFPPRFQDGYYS
UniProt Q86Y56, 539-560: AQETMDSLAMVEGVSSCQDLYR
UniProt Q99615: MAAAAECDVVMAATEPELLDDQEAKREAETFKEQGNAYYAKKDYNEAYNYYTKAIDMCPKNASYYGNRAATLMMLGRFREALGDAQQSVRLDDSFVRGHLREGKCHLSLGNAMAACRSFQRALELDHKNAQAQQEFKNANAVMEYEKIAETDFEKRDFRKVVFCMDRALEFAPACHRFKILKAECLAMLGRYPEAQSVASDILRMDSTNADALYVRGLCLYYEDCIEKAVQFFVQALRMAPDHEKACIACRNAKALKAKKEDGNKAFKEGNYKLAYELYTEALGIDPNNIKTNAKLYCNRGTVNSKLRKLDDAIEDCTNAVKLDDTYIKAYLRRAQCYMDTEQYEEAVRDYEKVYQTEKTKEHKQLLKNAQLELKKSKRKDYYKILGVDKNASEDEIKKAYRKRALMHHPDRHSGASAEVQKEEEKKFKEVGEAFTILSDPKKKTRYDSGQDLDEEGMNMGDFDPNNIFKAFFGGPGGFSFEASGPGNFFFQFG
UniProt Q9BZ29: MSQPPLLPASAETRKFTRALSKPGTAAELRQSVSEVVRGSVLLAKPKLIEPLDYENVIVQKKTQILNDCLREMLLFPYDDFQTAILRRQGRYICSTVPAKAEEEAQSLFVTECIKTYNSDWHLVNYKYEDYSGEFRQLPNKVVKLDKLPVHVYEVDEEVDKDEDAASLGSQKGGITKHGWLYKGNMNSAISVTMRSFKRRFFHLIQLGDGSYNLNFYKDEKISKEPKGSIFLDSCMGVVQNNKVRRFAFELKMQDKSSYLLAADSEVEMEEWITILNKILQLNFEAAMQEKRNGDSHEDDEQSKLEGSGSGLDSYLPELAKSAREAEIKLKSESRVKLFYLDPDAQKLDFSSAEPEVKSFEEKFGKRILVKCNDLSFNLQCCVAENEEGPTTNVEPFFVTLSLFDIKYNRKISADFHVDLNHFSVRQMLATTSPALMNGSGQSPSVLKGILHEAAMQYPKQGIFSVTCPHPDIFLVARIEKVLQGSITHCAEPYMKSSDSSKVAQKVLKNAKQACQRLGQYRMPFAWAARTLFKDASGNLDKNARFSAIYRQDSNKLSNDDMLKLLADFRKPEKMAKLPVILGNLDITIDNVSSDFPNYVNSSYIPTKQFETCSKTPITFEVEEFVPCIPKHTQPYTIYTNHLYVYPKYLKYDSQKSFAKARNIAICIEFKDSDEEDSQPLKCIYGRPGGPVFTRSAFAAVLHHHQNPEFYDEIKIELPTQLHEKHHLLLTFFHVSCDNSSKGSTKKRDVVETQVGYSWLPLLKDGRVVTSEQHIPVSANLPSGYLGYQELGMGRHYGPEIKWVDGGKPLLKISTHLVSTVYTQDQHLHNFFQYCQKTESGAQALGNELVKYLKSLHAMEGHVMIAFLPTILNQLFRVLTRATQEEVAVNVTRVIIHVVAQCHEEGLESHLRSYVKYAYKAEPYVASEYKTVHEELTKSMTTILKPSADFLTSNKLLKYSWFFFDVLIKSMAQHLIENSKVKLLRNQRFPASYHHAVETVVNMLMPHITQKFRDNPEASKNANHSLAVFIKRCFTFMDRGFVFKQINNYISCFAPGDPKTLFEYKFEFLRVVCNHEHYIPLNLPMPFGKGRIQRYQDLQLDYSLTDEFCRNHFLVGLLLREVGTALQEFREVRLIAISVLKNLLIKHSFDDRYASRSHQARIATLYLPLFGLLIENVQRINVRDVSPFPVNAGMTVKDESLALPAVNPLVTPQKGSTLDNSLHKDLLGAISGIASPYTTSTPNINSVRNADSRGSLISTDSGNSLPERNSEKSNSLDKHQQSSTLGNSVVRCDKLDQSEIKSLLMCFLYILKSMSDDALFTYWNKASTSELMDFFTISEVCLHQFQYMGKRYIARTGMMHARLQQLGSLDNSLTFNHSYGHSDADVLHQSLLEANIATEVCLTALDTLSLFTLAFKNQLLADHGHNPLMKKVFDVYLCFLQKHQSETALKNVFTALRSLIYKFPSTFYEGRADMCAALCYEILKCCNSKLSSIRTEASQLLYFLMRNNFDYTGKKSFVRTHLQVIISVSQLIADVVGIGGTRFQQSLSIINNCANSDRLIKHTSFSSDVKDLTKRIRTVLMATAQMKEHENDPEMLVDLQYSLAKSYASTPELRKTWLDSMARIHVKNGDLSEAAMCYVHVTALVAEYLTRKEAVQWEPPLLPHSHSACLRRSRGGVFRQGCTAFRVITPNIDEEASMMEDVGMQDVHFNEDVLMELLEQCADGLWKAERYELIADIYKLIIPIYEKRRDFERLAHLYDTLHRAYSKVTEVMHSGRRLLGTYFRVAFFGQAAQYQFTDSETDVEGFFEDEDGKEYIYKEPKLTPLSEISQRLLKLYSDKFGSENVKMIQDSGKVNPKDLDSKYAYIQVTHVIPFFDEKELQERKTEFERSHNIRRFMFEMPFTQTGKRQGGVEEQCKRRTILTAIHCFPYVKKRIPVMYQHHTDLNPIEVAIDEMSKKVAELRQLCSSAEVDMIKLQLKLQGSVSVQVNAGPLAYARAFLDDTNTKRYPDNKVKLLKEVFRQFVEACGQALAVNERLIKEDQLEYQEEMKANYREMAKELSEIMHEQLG
UniProt Q6UX07: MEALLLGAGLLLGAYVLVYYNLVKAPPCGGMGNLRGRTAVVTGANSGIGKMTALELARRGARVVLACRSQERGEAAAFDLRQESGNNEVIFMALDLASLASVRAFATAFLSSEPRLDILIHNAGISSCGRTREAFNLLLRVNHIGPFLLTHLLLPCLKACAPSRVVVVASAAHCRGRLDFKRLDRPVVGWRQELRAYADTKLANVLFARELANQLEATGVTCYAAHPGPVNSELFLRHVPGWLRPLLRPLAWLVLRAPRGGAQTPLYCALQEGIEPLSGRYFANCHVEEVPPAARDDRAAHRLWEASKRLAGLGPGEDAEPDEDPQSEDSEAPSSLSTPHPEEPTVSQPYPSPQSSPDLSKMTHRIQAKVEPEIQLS

[2] = compound: ClCC(=O)N[C@H]1CCCc2ccccc12; assay: as above; conditions: treatment time: 4 h, cell line lysate: HEK293T
Description: as §1

| Target | log2 mean competition ratio ([1]; 50 µM) | log2 mean competition ratio ([1]; 200 µM) | log2 mean competition ratio ([2]; 50 µM) | log2 mean competition ratio ([2]; 200 µM) |
| --- | --- | --- | --- | --- |
| DNM3 C453 | -0.19 | -0.209 | 0.21 | -0.0852 |
| DIAPH1 C1227 | 0.334 | -0.0549 | 0.118 | 0.0448 |
| DOCK6 C1243 (UniProt Q96HP0) | 0.00286 | -0.116 | 0.013 | -0.00958 |
| DOCK8 C2091 (UniProt Q8NF50) | 0.0444 | 0.26 | -0.244 | -0.00117 |
| DNMBP C1134 (UniProt Q6XZF7) | 0.298 | 0.0961 | 0.119 | 0.204 |
| DHX15 C774 (UniProt O43143) | 0.0797 | 0.0947 | 0.417 | 0.024 |
| DPP9 C184 (UniProt Q86TI2) | -0.129 | 0.0505 | -0.176 | 0.0485 |
| DNAJC13 C1474 (UniProt O75165) | -0.0844 | -0.0762 | -0.488 | -0.253 |
| DNM2 C424 (UniProt P50570) | 0.415 | -0.366 | 1.35 | -0.399 |
| DNA2 C478 (UniProt P51530) | 0.105 | 0.148 | -0.369 | -0.143 |
| DMXL1 C543 (UniProt Q9Y485) | 0.321 | 0.165 | -0.144 | 0.242 |
| DFFA C38 (UniProt O00273) | -0.168 | -0.0512 | -0.0046 | -0.00599 |
| DHX29 C749 (UniProt Q7Z478) | 0.401 | 0.0518 | 0.196 | 0.168 |
| DHX36 C135 (UniProt Q9H2U1) | -0.00739 | -0.103 | -0.138 | -0.142 |
| DOCK4 C1723 | 0.0886 | -0.0966 | 0.223 | -0.109 |
| DHX29 C1245 (UniProt Q7Z478) | 0.0277 | -0.103 | -0.206 | -0.0839 |
| DNAAF5 C555 (UniProt Q86Y56) | -0.19 | -0.172 | 0.71 | -0.269 |

In another format: results already given
Target	log2 mean competition ratio ([1]; 50 µM)	log2 mean competition ratio ([1]; 200 µM)	log2 mean competition ratio ([2]; 50 µM)	log2 mean competition ratio ([2]; 200 µM)
DNM2 C424 (UniProt P50570)	0.415	-0.366	1.35	-0.399
DNA2 C478 (UniProt P51530)	0.105	0.148	-0.369	-0.143

Continuation.

| Target | log2 mean competition ratio ([1]; 50 µM) | log2 mean competition ratio ([1]; 200 µM) | log2 mean competition ratio ([2]; 50 µM) | log2 mean competition ratio ([2]; 200 µM) |
| --- | --- | --- | --- | --- |
| DNM1L C361 (UniProt O00429) | -0.0481 | -0.0905 | -0.34 | 0.0203 |
| DENND4B C652 (UniProt O75064) | -0.211 | 0.27 | -0.111 | 0.132 |
| DENND5A C1077 (UniProt Q6IQ26) | -0.308 | 0.254 | -0.504 | 0.233 |
| DMXL1 C1904 (UniProt Q9Y485) | 0.138 | -0.393 | 0.257 | -0.295 |
| DNAJC7 C337 (UniProt Q99615) | 0.0852 | 0.0766 | 0.436 | 0.0245 |
| DENND4A C1561 (UniProt Q7Z401) | 0.0395 | 0.0196 | 0.0642 | 0.408 |
| DOCK9 C613 (UniProt Q9BZ29) | -0.267 | -0.0211 | -0.192 | 0.143 |
| DNMBP C1434 (UniProt Q6XZF7) | 0.0426 | 0.255 | -0.346 | 0.0154 |
| DNM1L C431 (UniProt O00429) | 0.146 | 0.224 | -0.647 | 0.104 |
| DOCK6 C384 (UniProt Q96HP0) | -0.0427 | -0.192 | -0.00226 | 0.00914 |
| DHX30 C1183 (UniProt Q7L2E3) | 0.142 | -0.268 | 0.351 | -0.212 |
| DHRS13 C28 (UniProt Q6UX07) | -0.102 | 0.228 | -0.253 | 0.234 |
| DGCR8 C430 (UniProt Q8WYQ5) | 0.0385 | -0.0191 | 0.293 | 0.037 |
| DIXDC1 C600 | 0.124 | 0.0878 | -0.151 | -0.102 |
| DHX30 C346 (UniProt Q7L2E3) | -0.158 | 0.48 | -0.222 | 0.381 |
| DPH6 C130 (UniProt Q7L8W6) | 0.202 | -0.0305 | 0.488 | -0.164 |

Reference: the supplement of paper PMC11732987, “Enantioselective OTUD7B fragment discovery through chemoproteomics screening and high-throughput optimisation” (Communications Chemistry, 2025)
